Experimental data taken from paper PMC12117712.
These are yes or no findings as the source states them, for the method shown. Binding seen in cells or lysates may run through a third protein. Binding calls can cover weak binding; strength is not graded here.

Biological target: T1, Enoyl-CoA hydratase short-chain 1 (ECHS1) (human (endogenous in HCT116 and LoVo)) (UniProt P30084)
T1 sequence: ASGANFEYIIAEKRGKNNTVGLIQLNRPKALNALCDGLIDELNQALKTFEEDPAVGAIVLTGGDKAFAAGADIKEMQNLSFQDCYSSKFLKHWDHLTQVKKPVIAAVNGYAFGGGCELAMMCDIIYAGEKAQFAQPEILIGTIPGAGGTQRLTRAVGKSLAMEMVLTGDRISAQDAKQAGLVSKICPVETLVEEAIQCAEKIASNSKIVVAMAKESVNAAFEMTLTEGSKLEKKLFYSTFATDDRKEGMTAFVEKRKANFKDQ
Experiment: co-IP; lysates of HCT116 and LoVo cells in 50 mM Tris-HCl pH 7.5, 150 mM NaCl, 0.1% NP-40; anti-ECHS1 antibody and Protein G agarose, 4-5 h at 4 °C; Western blot

Sirtuin 3 (SIRT3) (human (endogenous in HCT116 and LoVo))
binding: binds
